Experimental data taken from PubChem BioAssay AID2685 (National Center for Advancing Translational Sciences (NCATS), 2010).
The list shows a part of the results. Shown are side measurements of this screen, not its main read-out; they come without a call. Compounds called inactive in the main read-out are mostly missing here. Words in brackets tell the shape of the fitted curve; partial curves, single points and poor fits give uncertain potencies.

Assay: qHTS Assay for Lipid Storage Modulators in Drosophila S3 Cells;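 for cell number change: cells counted by Cell Tracker Red CMTPX staining in the red channel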
Details: BODIPY lipid droplet fluorescence, 18-24 h; for cell number change: measured here: cell count max response, cells fed with added oleic acid
Procedure, shortened: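 Drosophila S3 cells got compounds at several concentrations plus oleic acid (400 uM solution). Laser-scanning cytometry with 488 nm excitation read lipid droplets at 500-530 nm and cells at 575-640 nm. Percent activity was relative to 20 uM Triacsin C.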

[1] = measured here: lipid fluorescence (Fed channel) AC50, cells fed with added oleic acid
[2] = measured here: cell number channel AC50, cells fed with added oleic acid

Row | Compound | cell number change [%] | AC50 [1] | AC50 [2]
1 | O=C(CN1CCN(Cc2ccc(F)cc2Cl)C1=O)NCCCN1CCOCC1 | -9.79 | 0.291 µM [falling, partial curve, poor fit] | –
2 | CC(Sc1ccc(Cl)cc1)C(=O)NCc1ccc2c(c1)OCO2 (stereo unspecified) | 10.7 | 7.31 µM [rising, partial curve] | –
3 | CC1(CCC(=O)N2CCCC(N3CCN(c4cccc(C(F)(F)F)c4)CC3)C2)CC1 (stereo unspecified) | -31.7 | – | 9.2 µM [falling, partial curve, poor fit]
4 | CC(C)(C)c1ccc(C2/C(=C(\O)c3ccc4c(c3)OCCO4)C(=O)C(=O)N2CCCN2CCOCC2)cc1 (stereo unspecified) | -8.26 | 0.58 µM [falling, single point] | –
5 | O=C(Nc1ccc(Cl)c(Cl)c1)C1CCN(C(=O)c2ccco2)CC1 | -32 | 29.1 µM [falling, single point] | 1.16 µM [falling, full curve, poor fit]
6 | CCC1Nc2ncnc(N3CCOCC3)c2N(Cc2ccccc2)C1=O (stereo unspecified) | 26.4 | 0.82 µM [falling, full curve] | 0.517 µM [falling, full curve]
7 | Cc1cc(C(=O)Nn2cnnc2)ccc1[N+](=O)[O-] | -3.7 | 0.731 µM [falling, single point] | –
8 | COc1cc2c(cc1OC)C1=C(C#N)CC/C(=N\S(=O)(=O)c3ccccc3)N1CC2 | -32.8 | 20.6 µM [falling, single point] | 9.2 µM [falling, partial curve, poor fit]
9 | O=C(Nc1ccc(N2CCCC2)cc1)c1cccc(F)c1 | – | – | 6.51 µM [rising, single point]
10 | CC(C)CN(CC(C)C)C(=O)C12CCC(C)(C(=O)C1)C2(C)C (stereo unspecified) | -63.8 | – | 29.1 µM [falling, single point]
11 | Cc1ccc(SCCC(=O)OC(C(=O)NC(N)=O)C(C)C)cc1 (stereo unspecified) | – | 0.00461 µM [falling, full curve, poor fit] | 0.00517 µM [falling, full curve, poor fit]
12 | Cc1csc(NC(=O)CSc2nc3ccccc3c(=O)[nH]2)n1 | -1.12 | – | –
13 | Fc1ccc(COc2ccccc2CNCc2ccncc2)cc1 | 2.22 | 32.6 µM [rising, single point] | –
14 | O=C(O)Cn1nc(C(F)(F)F)c2c1CCC2 | -4.59 | – | –
15 | CCOc1ccccc1NC(=O)NCCC1=CCCCC1 | 8.05 | – | 4.11 µM [falling, single point]
16 | N#Cc1ccc(NC(=O)CCc2nc3ccccc3s2)cc1 | -0.89 | 2.06 µM [rising, partial curve, poor fit] | –
17 | CCOC(=O)C1=C(O)C(=O)N(c2ccc(S(N)(=O)=O)cc2)C1c1ccc(Br)cc1 (stereo unspecified) | 2.77 | – | 0.164 µM [falling, full curve, poor fit]
18 | COC(C(=O)Nc1ccnn1C1CCN(Cc2nccs2)CC1)c1ccccc1 (stereo unspecified) | – | 0.231 µM [falling, single point] | –
19 | CSc1cccc(NC(=O)c2cc(S(=O)(=O)N3CCc4ccccc43)cn2C)c1 | 33.4 | – | 0.0231 µM [rising, full curve, poor fit]
20 | CCC(C)N(C(=O)c1csnn1)C(C(=O)NC1CCCC1)c1ccccc1F (stereo unspecified) | 3.23 | – | –

Row | Compound | cell number change [%] | AC50 [1] | AC50 [2]
21 | Cc1cccc(-c2nnc(SCC(=O)c3ccc(O)cc3O)n2C)c1 | 53.3 | – | 29.1 µM [rising, single point]
22 | C=C1SC(=Nc2ccccc2Cl)N(C(=O)c2sc3ccccc3c2Cl)C12CCCCC2 | 113 | 18.4 µM [rising, partial curve] | 8.2 µM [rising, partial curve]
23 | Cc1cccc(C(=O)Nc2ccccc2N2CCN(c3ccc(F)cc3)CC2)c1 | -0.424 | 1.46 µM [rising, full curve, poor fit] | –
24 | c1ccc(Oc2cccc(OCCn3cncn3)c2)cc1 | 5.55 | 1.3 µM [rising, full curve] | –
25 | Cc1nn(C)cc1CN(C)C(=O)c1cc(COc2ccc(F)cc2F)on1 | 19.8 | 11.6 µM [rising, partial curve, poor fit] | –
26 | CC(C)(C)NC(=O)Cn1c(=O)oc2cc(S(=O)(=O)N3CCc4ccccc43)ccc21 | – | 2.06 µM [rising, partial curve] | –
27 | CC(NC(=O)c1ccc(N2CCCC2)c([N+](=O)[O-])c1)c1ccc(S(N)(=O)=O)cc1 (stereo unspecified) | 15.8 | 29.1 µM [rising, single point] | –
28 | O=C(C1CC1)N1N=C(c2ccccc2)CC1(O)C(F)(F)C(F)(F)F (stereo unspecified) | 1.46 | – | –
29 | Cc1cc(C)cc(NS(=O)(=O)c2ccc(NC(=O)C3CCCCC3C(=O)O)cc2)c1 (stereo unspecified) | – | 3.66 µM [falling, full curve] | –
30 | Cc1cccc(OP(=O)(Nc2c(C)n(C)n(-c3ccccc3)c2=O)Oc2cccc(C)c2)c1 | -18.7 | – | 0.517 µM [falling, full curve, poor fit]
31 | CC(C)n1c(COc2ccccc2)nc2ccccc21 | -1.1 | – | –
32 | Cc1cc(C)cc(NC(=O)C(=O)NCC2CCCN2S(=O)(=O)c2cccs2)c1 (stereo unspecified) | 4.02 | 2.06 µM [rising, partial curve] | 7.31 µM [rising, single point]
33 | CC1=NN(c2ccccc2)C(=O)C1c1ccccc1 (stereo unspecified) | 2.93 | 0.651 µM [rising, partial curve] | –
34 | N#CC1(NC(=O)Cn2ncc(Cl)c(Cl)c2=O)CCCCC1 | – | 23.1 µM [falling, partial curve, poor fit] | –
35 | Cc1ccc2c(=O)cc(C(=O)Nc3ccc(S(=O)(=O)Nc4onc(C)c4C)cc3)oc2c1 | 1.49 | – | –
36 | CCCCC(=O)Nc1ccc(NC(=O)c2ccco2)cn1 | -10.1 | – | –
37 | COc1cccc(OC)c1C(=O)NCC12CC3CC(C1)CC(CNC(=O)c1c(OC)cccc1OC)(C3)C2 | 28 | 0.164 µM [falling, full curve, poor fit] | –
38 | CN(Cc1cc2ccccc2[nH]c1=O)S(=O)(=O)c1ccccc1 | 14.1 | 7.31 µM [rising, partial curve] | –
39 | CN(C)c1cccc(C(=O)n2cc(C(=O)c3cc(F)ccc3O)cn2)c1 | 52.1 | 20.6 µM [rising, single point] | 29.1 µM [rising, single point]
40 | C=CCn1c(SCc2c(Cl)cccc2Cl)nnc1-c1cccnc1 | 57 | 0.411 µM [rising, full curve] | 0.366 µM [rising, full curve]

Row | Compound | cell number change [%] | AC50 [1] | AC50 [2]
41 | O=C(OCc1nnc(-c2ccccc2)o1)c1cccnc1Cl | 22 | 2.31 µM [rising, single point] | –
42 | c1cc2nnnn2nc1N1CCCCC1 | 11.1 | – | –
43 | C#CCSc1nnc(-c2ccc([N+](=O)[O-])cc2)o1 | 31.5 | 6.51 µM [rising, single point] | 4.11 µM [rising, full curve]
44 | CCC(c1nnc(SCC(=O)Nc2cc(Cl)ccc2C#N)n1C1CCCCC1)N(C)C (stereo unspecified) | 66.7 | – | 0.231 µM [rising, partial curve, poor fit]
45 | O=C(O)c1cc(S(=O)(=O)N(Cc2ccccc2)c2cccc(C(F)(F)F)c2)ccc1Cl | 18 | – | –
46 | CN(CC(=O)NCc1ccc2c(c1)OCO2)S(=O)(=O)c1ccc(F)cc1 | -28.9 | 0.447 µM [falling, single point] | –
47 | Cn1c(CC(=O)Nc2ccccc2C(F)(F)F)c(Sc2ccccc2)c2ccccc21 | -5.69 | – | –
48 | N#Cc1ccccc1Oc1ccccc1C=O | -12.4 | – | –
49 | COc1ccc(Cn2cnc3c(NS(C)(=O)=O)c(C)c(C)cc32)cc1 | – | – | 1.46 µM [rising, partial curve]
50 | C/C(=N\NC(=O)c1cc2c(s1)CCC(C)C2)c1ccncc1 (stereo unspecified) | -36.2 | 6.51 µM [rising, single point] | 0.231 µM [falling, full curve, poor fit]
51 | COc1ccc(S(=O)(=O)N2CCN(C(=O)COc3ccc4c(C)cc(=O)oc4c3)CC2)cc1 | 15.6 | 2.06 µM [rising, single point] | –
52 | Nc1nonc1-n1nnc(C(=O)N/N=C/c2ccncc2)c1-c1cccs1 | -7.08 | – | –
53 | COc1cc(C2C(C#N)=C(N)Oc3c2oc(CO)cc3=O)ccc1OC(C)C (stereo unspecified) | -4.23 | 0.291 µM [falling, partial curve, poor fit] | –
54 | COc1cccc(NC(=O)CN(C)C(=O)c2ccc(NC3CC3)c([N+](=O)[O-])c2)c1 | 33.2 | 2.31 µM [rising, partial curve, poor fit] | 5.17 µM [rising, partial curve, poor fit]
55 | O=C(Nc1cccc(C(=O)Nc2cccc(C(F)(F)F)c2)c1)c1ccc(=O)[nH]c1 | 22.5 | 25.9 µM [falling, single point] | –
56 | CCOC(=O)c1c(N2C(=O)Nc3cc(Cl)c(Cl)cc3N2O)sc2c1CCCCC2 | -43.2 | 11.6 µM [falling, partial curve, poor fit] | 11.6 µM [falling, partial curve]
57 | C=C(C)Cn1c(CCNC(=O)C(C)(C)C)nc2ccccc21 | – | 3.26 µM [rising, single point] | 3.66 µM [rising, single point]
58 | CCCn1c(NC(=O)c2ccc(Cl)c(S(=O)(=O)N3CCCC3)c2)nc2ccccc21 | -20 | 16.4 µM [falling, single point] | –
59 | Cc1ccc(NC(=O)[C@H](C)NC(=O)C2CCN(C(=O)[C@@H](N)C(C)C)CC2)cc1 | -2.84 | 0.13 µM [rising, full curve, poor fit] | –

Exported tab-delimited: 12 of the compounds above
Row	Compound	cell number change [%]	AC50 [1]	AC50 [2]
21	Cc1cccc(-c2nnc(SCC(=O)c3ccc(O)cc3O)n2C)c1	53.3	–	29.1 µM [rising, single point]
22	C=C1SC(=Nc2ccccc2Cl)N(C(=O)c2sc3ccccc3c2Cl)C12CCCCC2	113	18.4 µM [rising, partial curve]	8.2 µM [rising, partial curve]
23	Cc1cccc(C(=O)Nc2ccccc2N2CCN(c3ccc(F)cc3)CC2)c1	-0.424	1.46 µM [rising, full curve, poor fit]	–
24	c1ccc(Oc2cccc(OCCn3cncn3)c2)cc1	5.55	1.3 µM [rising, full curve]	–
25	Cc1nn(C)cc1CN(C)C(=O)c1cc(COc2ccc(F)cc2F)on1	19.8	11.6 µM [rising, partial curve, poor fit]	–
26	CC(C)(C)NC(=O)Cn1c(=O)oc2cc(S(=O)(=O)N3CCc4ccccc43)ccc21	–	2.06 µM [rising, partial curve]	–
27	CC(NC(=O)c1ccc(N2CCCC2)c([N+](=O)[O-])c1)c1ccc(S(N)(=O)=O)cc1 (stereo unspecified)	15.8	29.1 µM [rising, single point]	–
28	O=C(C1CC1)N1N=C(c2ccccc2)CC1(O)C(F)(F)C(F)(F)F (stereo unspecified)	1.46	–	–
29	Cc1cc(C)cc(NS(=O)(=O)c2ccc(NC(=O)C3CCCCC3C(=O)O)cc2)c1 (stereo unspecified)	–	3.66 µM [falling, full curve]	–
30	Cc1cccc(OP(=O)(Nc2c(C)n(C)n(-c3ccccc3)c2=O)Oc2cccc(C)c2)c1	-18.7	–	0.517 µM [falling, full curve, poor fit]
31	CC(C)n1c(COc2ccccc2)nc2ccccc21	-1.1	–	–
32	Cc1cc(C)cc(NC(=O)C(=O)NCC2CCCN2S(=O)(=O)c2cccs2)c1 (stereo unspecified)	4.02	2.06 µM [rising, partial curve]	7.31 µM [rising, single point]
